These are yes or no findings as the source states them, for the method shown. Binding can be weak; no strength is given.
Molecular target: GST-RNF144A (UniProt P50876)
Test: pull-down; GST pull down: GST-tagged recombinant protein mixed with His- or Intein-tagged recombinant protein in 20 mM Tris, 150 mM NaCl, 1 mM EDTA, 0.5% Triton-X; Glutathione Sepharose 4B overnight at 4 °C; immunoblot; both purified

The chains behind the UniProt entries cited, without tags or fusion partners. Where a name states a change or a piece, a line headed by the entry shows the natural chain unless it says otherwise.
UniProt P50876: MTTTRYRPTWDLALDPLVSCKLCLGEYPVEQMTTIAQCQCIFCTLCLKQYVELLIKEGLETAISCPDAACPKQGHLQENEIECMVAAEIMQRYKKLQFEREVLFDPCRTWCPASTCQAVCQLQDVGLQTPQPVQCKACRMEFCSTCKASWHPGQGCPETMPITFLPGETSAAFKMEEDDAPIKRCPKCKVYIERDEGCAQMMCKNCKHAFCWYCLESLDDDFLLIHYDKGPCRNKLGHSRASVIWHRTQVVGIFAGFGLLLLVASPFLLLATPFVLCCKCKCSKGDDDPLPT

binding: binds
Substance: Intein-VRK2 (from UniProt Q86Y07-1 1-508) (enzyme)

— PMC11982375
